Data as given in PubChem BioAssay AID652243 (Drosophila RNAi Screening Center, 2013).

Assay: 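Fly genes required for human androgen receptor driven transcription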 (primary screen)
Cells: Drosophila S2R+ cells
Knock-down reagent: long dsRNA against Drosophila genes
Timing: 72 h (48 h, then 24 h hormone)
Conditions: synthetic androgen R1881 at 10 nM for 24 h
Measured: 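Per-well raw luminescence of the androgen-driven firefly reporter and of the Renilla control, two replicates each, without normalisation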
Direction: firefly reporter light: higher = more light from androgen-responsive reporter; Renilla control light: higher = more constitutive control signal (cell number, transfection)
Hit rule: 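Hit when the log firefly-to-Renilla ratio dropped or increased by a fixed fold versus the mean of GFP or LacZ controls across duplicate plates; lowering cut given as 1.5 and as 3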
Calls: active = hit: reporter lowered or raised; inactive = no hit
The deposit covers about 24,000 reagents; below is a random part of those that have a named target and a result. Of all reagents, 246 (1%) are marked active. 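Plates not normalised; calls are printed but the firefly/Renilla ratio behind them is not deposited; fold cut for lowering reported inconsistently.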 Raw values are not corrected between plates. The numbers tell different reagents against one gene apart. Reagent sequences are not shown. Not given: the amount of reagent.

gene	dsRNA no.	firefly reporter light, replicate 1	firefly reporter light, replicate 2	Renilla control light, replicate 1	Renilla control light, replicate 2	Call
CG14841	1	1.44e5	93203	1.90e6	1.83e6	inactive
CG14841	2	1.72e5	1.91e5	4.93e5	2.94e5	inactive
CG13707	1	1.82e5	1.81e5	1.72e6	2.21e6	inactive
tHMG1	1	3.51e5	4.59e5	3.18e6	3.43e6	inactive
mRpL50	1	6.39e5	7.48e5	1.78e6	1.63e6	inactive
mRpL50	2	5.44e5	5.94e5	1.20e6	1.13e6	inactive
CG15385	1	1.01e5	1.27e5	6.71e5	9.81e5	inactive
CG15385	2					inactive
CG15385	3					inactive
ham	1	1.30e5	67898	1.09e6	1.06e6	inactive
ham	2	1.30e5	2.46e5	1.02e6	9.06e5	active
ham	3	1.80e5	1.93e5	2.15e6	2.53e6	inactive
ham	4	2.90e5	2.87e5	6.68e5	1.00e6	inactive
Cdk1	1	1.44e5	1.60e5	7.58e5	1.02e6	active
CG13954	1	2.65e5	1.56e5	1.55e6	9.18e5	inactive
CG13954	2	3.46e5	2.97e5	4.45e5	3.73e5	inactive
Sec61beta	1	3.55e5	3.76e5	1.98e6	1.89e6	inactive
Sec61beta	2	6.49e5	7.52e5	1.54e6	1.84e6	inactive
Sec61beta	3	3.26e5	4.89e5	1.09e6	1.36e6	inactive
CG11597	1	1.04e6	8.93e5	1.28e6	1.11e6	inactive
Spec2 (retired record)	1	42402	81352	1.46e6	1.21e6	inactive
Spec2 (retired record)	2	6.64e5	1.05e6	1.14e6	1.49e6	inactive
Nach	1	76603	1.10e5	1.01e6	1.01e6	inactive
Fis1	1	1.17e5	1.71e5	1.59e6	1.96e6	inactive
